# From US20200148774A1
# By UniProt entry, the sequences of proteins in these tests, tags left out. Where a name states a change or a piece, a line headed by the entry shows the natural chain unless it says otherwise.
# UniProt Q5QGZ9: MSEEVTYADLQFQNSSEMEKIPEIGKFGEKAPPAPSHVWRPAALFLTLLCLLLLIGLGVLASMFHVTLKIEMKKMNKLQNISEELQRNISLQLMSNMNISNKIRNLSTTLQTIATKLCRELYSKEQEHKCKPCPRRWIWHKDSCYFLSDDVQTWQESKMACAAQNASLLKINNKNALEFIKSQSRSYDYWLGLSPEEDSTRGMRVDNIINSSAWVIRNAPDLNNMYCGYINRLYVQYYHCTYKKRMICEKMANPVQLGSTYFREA
# No constants are given. Whether binding was seen depends on the method and setting. Some results given as binding are weak or reduced against the parent protein; the word gives no strength. Sequences can lack the tags named with a protein.
# T1: recombinant human CLL-1 extracellular domain (ECD, amino acids 65-265) fused to an N-terminal Flag (human) (UniProt Q5QGZ9)
# T1 sequence: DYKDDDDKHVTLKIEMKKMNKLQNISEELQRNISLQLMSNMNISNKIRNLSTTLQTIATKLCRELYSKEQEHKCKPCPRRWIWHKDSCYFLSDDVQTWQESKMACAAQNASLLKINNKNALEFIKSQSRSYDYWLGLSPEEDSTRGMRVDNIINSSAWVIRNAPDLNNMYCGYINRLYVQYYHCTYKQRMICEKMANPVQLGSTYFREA
# Key:
# [1] = biological target: T1, recombinant human CLL-1 extracellular domain (ECD, amino acids 65-265) fused to an N-terminal Flag (human); experiment: SPR (Biacore)
# [2] = biological target: T1, recombinant human CLL-1 extracellular domain (ECD, amino acids 65-265) fused to an N-terminal Flag (human); experiment: SPR (Biacore), told in the TDB example
Binder,binding [1],binding [2]
"ch6E7 (antibody, V domains shown) VH: QVQLQQSGPELVKPGASVKISCKASGYSFTDYYMHWVKQSHIKSLEWIGRINPYNGAAFYSQNFKDKASLTVDKSSSTAYMELHSLTSEDSAVYYCAIERGADLEGYAMDYWGQGTSVTVSS VL: DIVLTQSPSSLIVSLGQRATISCRASQSVSTSSYNYMHWYQQKPGQPPKLLLKYASNLESGVPARFSGSGSGTDFTLNIHPVEEEDTATYYCQHSWEIPLTFGAGTKLEIK",binds,–
"ch21C9 (antibody, V domains shown) VH: EVQLQQSGPELVKPGASVKMSCKASGYTFTDYYLDWVKQSHGESFEWIGRVNPYNGGTIYNQKFKGKATLTVDKSSSTAYMDLNSLTSEDSAVYYCARDHYRYDPLLDYWGQGTTLTVSS VL: DIQMTQSHKFMSTSVGDRVSITCKASQDVSTAVAWFQQKPGQSPKLLIYSPSYRYTGVPDRFTGSGSGTDFTFTISSVQAEDLAVYYCQQLYSTPYTFGGGTKLEIK",binds,–

# Second part, the binder after the results:
binding [1],binding [2],Binder
binds,binds,"ch20B1 (antibody, V domains shown) VH: EVQLQQSGPELVKPGALVKISCKASGYTFTSYDINWLKQRPGQGLEWIGWIYPGDGTTEYNERFKGKATLTADKSSSTAYLQLSSLTSENSAVYFCARSYDYDYAMDYWGQGTSVTVSS VL: DIVLTQSPAIMSASPGEKVTMTCSASSSISYMYWYQQKPGTSPKRWIYDTSKLASGVPARFSGSGSGTSYSLTISSMEAEDAATYYCHQRSSWTFGGGTKLEIK"
binds,–,"ch28H12 (antibody, V domains shown) VH: QVQLQQSGAELVKPGASVKLSCTASGFNIKDTYMHWVKQRPEQGLEWIGRIDPANGDTDYDPKFQGKATVTADTSSNTAYLQLSSLTSEDTAVYYCTISGPPYYVMDYWGQGTSVTVSS VL: DIQMTQSPASLAVSLGQRATISCRASQSVSSSSYSYMHWYQQKPGQPPKLLIKYASNLESGVPARFSGRGSGTDFTLNIHPVEEEDTATYYCQHSWEIPYTFGGGTRLEIK"
